Results from paper PMC8274477.
These are yes or no findings as the source states them, for the method shown. Some binding calls cover weakened binding; strength is not graded here.

The chains behind the UniProt entries cited, without tags or fusion partners.
UniProt Q9Y6Q9: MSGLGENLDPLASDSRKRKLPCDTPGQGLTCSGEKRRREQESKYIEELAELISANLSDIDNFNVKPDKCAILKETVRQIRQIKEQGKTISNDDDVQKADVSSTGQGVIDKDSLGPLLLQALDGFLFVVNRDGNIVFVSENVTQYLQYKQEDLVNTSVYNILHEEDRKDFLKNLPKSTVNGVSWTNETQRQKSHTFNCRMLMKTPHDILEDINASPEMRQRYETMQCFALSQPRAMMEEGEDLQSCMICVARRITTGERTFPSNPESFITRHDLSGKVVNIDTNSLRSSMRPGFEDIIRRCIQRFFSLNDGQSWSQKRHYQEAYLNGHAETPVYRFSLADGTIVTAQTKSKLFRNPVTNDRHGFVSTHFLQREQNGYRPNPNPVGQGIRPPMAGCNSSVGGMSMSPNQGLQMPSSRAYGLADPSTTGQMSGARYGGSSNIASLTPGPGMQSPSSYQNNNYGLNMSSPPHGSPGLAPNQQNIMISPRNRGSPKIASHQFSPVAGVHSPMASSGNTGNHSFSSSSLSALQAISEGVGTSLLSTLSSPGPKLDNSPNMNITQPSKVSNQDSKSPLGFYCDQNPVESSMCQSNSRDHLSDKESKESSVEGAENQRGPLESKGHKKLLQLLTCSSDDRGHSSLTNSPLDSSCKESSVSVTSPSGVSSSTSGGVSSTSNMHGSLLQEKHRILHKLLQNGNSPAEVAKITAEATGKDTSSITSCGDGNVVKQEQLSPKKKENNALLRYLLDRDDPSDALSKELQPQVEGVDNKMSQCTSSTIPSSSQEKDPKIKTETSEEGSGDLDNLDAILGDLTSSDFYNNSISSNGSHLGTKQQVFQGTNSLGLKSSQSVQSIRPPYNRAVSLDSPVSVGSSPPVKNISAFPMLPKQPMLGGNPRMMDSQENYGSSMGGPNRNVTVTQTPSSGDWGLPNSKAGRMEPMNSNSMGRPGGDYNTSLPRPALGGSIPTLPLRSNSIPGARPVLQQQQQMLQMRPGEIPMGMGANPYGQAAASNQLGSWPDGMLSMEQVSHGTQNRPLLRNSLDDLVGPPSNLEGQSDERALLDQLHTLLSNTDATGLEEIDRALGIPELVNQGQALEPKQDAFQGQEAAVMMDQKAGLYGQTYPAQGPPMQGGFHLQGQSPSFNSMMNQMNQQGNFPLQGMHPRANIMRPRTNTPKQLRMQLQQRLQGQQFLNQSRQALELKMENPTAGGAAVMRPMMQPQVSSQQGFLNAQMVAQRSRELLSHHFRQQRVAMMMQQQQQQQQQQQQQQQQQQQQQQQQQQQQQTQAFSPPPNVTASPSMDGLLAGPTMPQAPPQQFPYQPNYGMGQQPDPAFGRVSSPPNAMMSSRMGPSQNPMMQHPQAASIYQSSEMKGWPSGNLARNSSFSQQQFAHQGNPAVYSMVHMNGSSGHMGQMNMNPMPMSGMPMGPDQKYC
UniProt O00308: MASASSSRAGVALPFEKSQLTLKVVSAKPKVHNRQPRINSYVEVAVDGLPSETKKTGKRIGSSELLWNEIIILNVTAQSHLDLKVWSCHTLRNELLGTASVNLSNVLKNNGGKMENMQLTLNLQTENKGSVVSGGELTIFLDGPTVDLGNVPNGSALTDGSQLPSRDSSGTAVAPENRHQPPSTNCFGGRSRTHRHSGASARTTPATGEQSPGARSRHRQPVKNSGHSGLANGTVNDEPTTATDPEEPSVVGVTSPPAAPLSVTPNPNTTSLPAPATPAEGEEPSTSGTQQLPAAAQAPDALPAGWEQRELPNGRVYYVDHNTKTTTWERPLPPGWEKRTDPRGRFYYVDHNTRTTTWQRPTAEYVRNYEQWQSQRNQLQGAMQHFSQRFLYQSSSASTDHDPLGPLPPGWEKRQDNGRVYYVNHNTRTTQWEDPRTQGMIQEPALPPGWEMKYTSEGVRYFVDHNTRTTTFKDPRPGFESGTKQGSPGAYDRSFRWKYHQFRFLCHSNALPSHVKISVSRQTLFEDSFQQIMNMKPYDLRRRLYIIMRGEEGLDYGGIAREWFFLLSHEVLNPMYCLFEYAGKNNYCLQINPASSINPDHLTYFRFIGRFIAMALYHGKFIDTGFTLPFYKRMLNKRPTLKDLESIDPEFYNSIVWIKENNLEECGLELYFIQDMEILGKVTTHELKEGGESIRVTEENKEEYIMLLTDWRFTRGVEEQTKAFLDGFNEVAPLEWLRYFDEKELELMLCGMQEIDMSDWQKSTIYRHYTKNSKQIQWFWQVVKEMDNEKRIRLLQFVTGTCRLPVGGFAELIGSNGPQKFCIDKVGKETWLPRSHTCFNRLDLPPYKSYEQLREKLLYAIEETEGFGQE

Experiments:
Assay in all cases: peptide or protein array; HuProt human proteome microarray; 5 ug/5 ml biotin-labelled LUBAC or OTULIN in solution, 1 h at room temperature; Cy5-streptavidin, scanned at 635 nm; BSA as negative control; hits: Z-score >= 3 and I_(Mean_Ratio) >= 1.4; both purified
NCOA3 (human) = NCOA3 (human) (UniProt Q9Y6Q9)
NAT6 (human) = target: T1, NAT6 (human) (UniProt Q93015)
T1 sequence: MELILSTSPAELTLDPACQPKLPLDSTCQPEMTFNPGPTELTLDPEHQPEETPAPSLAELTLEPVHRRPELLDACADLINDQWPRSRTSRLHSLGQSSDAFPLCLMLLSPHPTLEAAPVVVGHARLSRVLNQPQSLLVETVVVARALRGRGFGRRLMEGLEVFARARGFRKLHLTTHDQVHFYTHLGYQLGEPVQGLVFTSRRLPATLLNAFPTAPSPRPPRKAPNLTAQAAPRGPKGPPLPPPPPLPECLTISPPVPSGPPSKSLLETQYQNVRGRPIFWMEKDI

[1] = target: WWP2 (spot on the microarray) (human) (UniProt O00308)
POGZ (human) = target: T2, POGZ (human) (UniProt Q7Z3K3)
T2 sequence: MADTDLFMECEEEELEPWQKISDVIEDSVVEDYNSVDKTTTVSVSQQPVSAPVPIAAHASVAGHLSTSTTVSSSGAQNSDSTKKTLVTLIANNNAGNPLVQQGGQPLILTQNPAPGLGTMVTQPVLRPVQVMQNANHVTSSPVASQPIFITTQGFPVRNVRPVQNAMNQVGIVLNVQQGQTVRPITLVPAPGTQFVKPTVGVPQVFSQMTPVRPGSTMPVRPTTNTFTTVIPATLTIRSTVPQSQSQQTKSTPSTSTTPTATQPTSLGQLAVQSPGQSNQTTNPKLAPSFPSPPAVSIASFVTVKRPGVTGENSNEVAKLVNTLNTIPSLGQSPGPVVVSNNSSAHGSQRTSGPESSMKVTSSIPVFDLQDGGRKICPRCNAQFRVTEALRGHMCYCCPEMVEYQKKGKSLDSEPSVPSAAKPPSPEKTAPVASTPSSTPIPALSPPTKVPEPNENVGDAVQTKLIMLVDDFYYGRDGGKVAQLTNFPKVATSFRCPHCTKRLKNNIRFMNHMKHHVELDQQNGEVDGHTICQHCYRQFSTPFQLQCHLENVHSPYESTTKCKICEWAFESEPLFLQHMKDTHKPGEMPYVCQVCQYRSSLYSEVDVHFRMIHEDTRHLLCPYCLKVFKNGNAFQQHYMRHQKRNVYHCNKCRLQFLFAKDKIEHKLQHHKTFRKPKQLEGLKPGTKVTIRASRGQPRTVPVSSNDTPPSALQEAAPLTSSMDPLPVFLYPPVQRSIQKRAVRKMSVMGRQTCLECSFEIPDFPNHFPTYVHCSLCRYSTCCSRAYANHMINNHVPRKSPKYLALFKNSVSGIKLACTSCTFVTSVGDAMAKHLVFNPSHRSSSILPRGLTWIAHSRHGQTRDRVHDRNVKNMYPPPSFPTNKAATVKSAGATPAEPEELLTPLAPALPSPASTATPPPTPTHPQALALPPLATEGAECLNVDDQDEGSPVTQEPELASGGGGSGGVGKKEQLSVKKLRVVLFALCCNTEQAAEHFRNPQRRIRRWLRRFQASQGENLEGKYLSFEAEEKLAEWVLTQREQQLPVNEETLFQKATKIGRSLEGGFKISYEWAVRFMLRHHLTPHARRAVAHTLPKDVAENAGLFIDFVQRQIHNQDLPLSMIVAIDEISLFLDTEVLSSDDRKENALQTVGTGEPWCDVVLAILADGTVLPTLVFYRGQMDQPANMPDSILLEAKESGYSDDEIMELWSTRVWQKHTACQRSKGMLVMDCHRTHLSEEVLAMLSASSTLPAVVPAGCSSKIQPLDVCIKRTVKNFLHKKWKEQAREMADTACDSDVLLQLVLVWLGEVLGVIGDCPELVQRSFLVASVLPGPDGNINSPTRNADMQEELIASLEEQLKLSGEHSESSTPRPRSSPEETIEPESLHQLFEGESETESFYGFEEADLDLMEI

SCEL (human) = target: T3, SCEL (human) (UniProt O95171)
T3 sequence: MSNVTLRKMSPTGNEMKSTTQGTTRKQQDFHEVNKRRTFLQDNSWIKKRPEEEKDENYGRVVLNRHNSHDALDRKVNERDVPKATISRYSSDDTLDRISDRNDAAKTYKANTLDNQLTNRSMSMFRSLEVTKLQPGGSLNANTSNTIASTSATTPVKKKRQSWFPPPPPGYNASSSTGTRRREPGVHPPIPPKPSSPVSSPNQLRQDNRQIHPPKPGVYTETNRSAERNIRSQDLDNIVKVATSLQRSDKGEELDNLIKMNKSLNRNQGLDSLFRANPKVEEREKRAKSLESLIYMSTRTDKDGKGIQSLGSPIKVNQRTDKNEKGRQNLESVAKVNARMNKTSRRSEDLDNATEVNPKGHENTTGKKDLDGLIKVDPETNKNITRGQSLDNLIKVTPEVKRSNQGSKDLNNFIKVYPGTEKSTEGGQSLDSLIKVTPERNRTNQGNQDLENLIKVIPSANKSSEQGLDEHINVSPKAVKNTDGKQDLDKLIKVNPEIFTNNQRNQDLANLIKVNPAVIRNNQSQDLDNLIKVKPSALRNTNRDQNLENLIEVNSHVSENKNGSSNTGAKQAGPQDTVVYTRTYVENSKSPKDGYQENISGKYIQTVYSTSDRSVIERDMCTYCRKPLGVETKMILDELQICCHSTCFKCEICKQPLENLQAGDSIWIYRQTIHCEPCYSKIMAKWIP

Measured: binding

linear ubiquitin chain assembly complex (LUBAC), purified as HIS-tagged HOIP with the subunit HOIL-1, biotin-labelled (from UniProt Q96EP0 1-1072; Q9BYM8 1-510)
binds: all assays above
